The campaign covered roughly 300,000 compounds. About 3,700 (1.2%) were called active. Inconclusive means that the source gave no clear call. Such entries were picked first, then a sample of the others. The call rests on the fitted dose curve; tested in HEK293 cells. Where the call is inconclusive, the potency comes from a doubtful curve fit.
Assay: qHTS for Inhibitors of binding or entry into cells for Lassa Virus; further: nearly all actives have a fitted effect of over 50% in size
Settings: Lassa virus pseudotype entry inhibition, cell reporter; activity change, negative = inhibition: at 37.9 µM (top of the series) unless noted
On the % scale 0 is the no-effect control and ±100 the full control effect; potency means the concentration at half of the fitted maximal effect.

Row | SMILES | Potency | activity change, negative = inhibition
1 | COc1ccc(/C=N/NC(=O)c2ccc(N)cc2)cc1Cn1cc([N+](=O)[O-])cn1 | inconclusive: 1 µM [inhibitor, full curve, poor fit] | 
2 | CCCc1cc(=O)[nH]c2nnc(SCC(=O)Nc3ccc(OC)cc3)n12 |  | inactive: 21.6% [at 46.1 µM]
3 | O=C(/C=C/c1ccc(OC2CSC2)cc1)c1ccc(Cl)cc1 |  | inactive: 4.06%
4 | O=C(c1cccc(-n2cccc2)c1)N1CCN(S(=O)(=O)c2ccc(F)cc2)CC1 | inconclusive: 35.5 µM [inhibitor, single point] | 
5 | CC(OC(=O)c1c2c(nc3ccccc13)/C(=C\c1ccc3c(c1)OCO3)CCC2)C(=O)Nc1ccc(S(N)(=O)=O)cc1 (configuration not stated) | inconclusive: 35.5 µM [inhibitor, single point] | 
6 | COc1ccc(CCNC(=O)C2CCCN(S(=O)(=O)c3ccc(F)cc3)C2)cc1OC (configuration not stated) |  | inactive: 28.1%
7 | O=c1[nH]c(=O)n(Cc2ccccc2)c(O)c1/C=C1\C=Nc2ccccc21 | inconclusive: 1.46 µM [inhibitor, full curve, poor fit] | 
8 | Cc1ccc(NC(=O)c2ccccc2NS(=O)(=O)c2ccc(Cl)s2)cc1S(=O)(=O)N1CCOCC1 | inconclusive: 18.4 µM [inhibitor, partial curve] | 
9 | Fc1ccc(-n2c(Cc3ccccc3)nnc2SCc2nc(-c3ccc(Cl)cc3)no2)cc1 | inconclusive: 18.3 µM [inhibitor, partial curve, poor fit] | 
10 | O=C1/C(=C\c2ccc([N+](=O)[O-])cc2)CS(=O)(=O)C/C1=C/c1ccc([N+](=O)[O-])cc1 | active: 3.55 µM | 
11 | Cc1ccccc1CN1CCN(c2ccc(S(=O)(=O)N3CCCC3)cn2)CC1 | inconclusive: 35.5 µM [inhibitor, partial curve, poor fit] | 
12 | Cc1cccc(C(=O)OC(C)C(=O)Nc2ccc(S(=O)(=O)N3CCCC3)cc2)c1O (configuration not stated) | inconclusive: 35.5 µM [inhibitor, single point] | 
13 | N#C/C(=C\c1cc2ccccc2nc1N1CCCCC1)C(N)=O | inconclusive: 12.6 µM [activator, single point] | 
14 | O=C1NCCC/C1=N\Nc1ccc(Br)cc1 |  | inactive: 8.67%
15 | CN(C)c1cccc(C(=O)Nc2nnc(Cc3ccccc3)s2)c1 | inconclusive: 12.6 µM [inhibitor, single point] | 
16 | CCCCC(=O)Oc1ccc2oc(-c3ccc(OC)cc3)cc(=O)c2c1 |  | inactive: -13.2% [at 46.1 µM]
17 | CCOc1cccc(C2c3[nH]c4ccccc4c3CCN2C(=O)c2ccccc2F)c1 (configuration not stated) | inconclusive: 35.5 µM [inhibitor, single point] | 
18 | CCc1ccc(N2C(=O)NC(=O)/C(=C\c3cccn3CCOc3ccc(C(C)C)cc3)C2=O)cc1 | inconclusive: 5.62 µM [inhibitor, single point] | 
19 | Cc1ccc(S(=O)(=O)N2CCOCC2)cc1NC(=O)COc1cccc(Oc2ccccc2)c1 | inconclusive: 22.4 µM [inhibitor, single point] | 
20 | CC(C)(C)c1ccc(C(=O)NC(=S)NNC(=O)c2cccs2)cc1 | inconclusive: 29.1 µM [inhibitor, single point] | 
21 | CCOc1cc(C2NC(=O)NC2=O)ccc1O (configuration not stated) | inconclusive: 11.2 µM [inhibitor, partial curve] | 
22 | Cc1ccc([N+](=O)[O-])cc1S(=O)(=O)N1CCn2cccc2C1c1ccccc1F (configuration not stated) | inconclusive: 8.91 µM [activator, partial curve, poor fit] | 
23 | CC(C)C(=O)N1CCC(CN=Cc2c(O)n(C3CCCCC3)c(=O)n(C3CCCCC3)c2=O)CC1 | active: 14.1 µM | 

Row | SMILES | Potency | activity change, negative = inhibition
24 | Cn1c(=O)oc2cc(S(=O)(=O)N3CCC(C(=O)NCc4ccccc4)CC3)ccc21 |  | inactive: 17% [at 46.1 µM]
25 | O=C(O)C1CC=C(Cl)CC1C(=O)NC1CCCCC1 (configuration not stated) | inconclusive: 3.55 µM [activator, partial curve, poor fit] | 
26 | Cc1ccc(-n2nc3c(=O)n(CCCC(=O)NCc4ccccc4C)nc(C)c3c2C)cc1 |  | inactive: 15% [at 46.1 µM]
27 | CCOC(=O)c1c(NC(=O)COC(=O)c2cccnc2OCC)sc(C(=O)N(CC)CC)c1C | inconclusive: 31.6 µM [inhibitor, single point] | 
28 | O=C(Nc1ccc(Cl)cc1)C1=Cc2ccccc2OC1 | inconclusive: 1.78 µM [activator, partial curve, poor fit] | 
29 | O=C(Nc1nc(-c2cccs2)cs1)c1ccc(Cl)cc1 | inconclusive: 35.5 µM [inhibitor, partial curve, poor fit] | 
30 | Cc1cc(C)nc(N/N=C/c2ccncc2)n1 | inconclusive: 1.26 µM [inhibitor, single point] | 
31 | Cc1ccc(NC(=O)CNC(=O)Cn2c(C)cc3ccccc3c2=O)cc1F |  | inactive: 25.7% [at 46.1 µM]
32 | COc1cc(C(=O)NCCOc2cc(C)cc(C)c2)c(Br)c(OC)c1OC | inconclusive: 15.8 µM [inhibitor, single point] | 
33 | Cc1ccc(-c2nnc(-c3ccc(NC(=O)Cc4cccs4)cc3)o2)cc1 | inconclusive: 20.6 µM [inhibitor, single point] | 
34 | CC(=O)c1c(C)[nH]c(C(=O)Nc2ccc(Cl)cc2F)c1C | inconclusive: 2.24 µM [inhibitor, single point] | 
35 | O=C(Cc1cccs1)NC1CC(=O)N(c2cccc(F)c2)C1 (configuration not stated) |  | inactive: -9.65% [at 46.1 µM]
36 | CC(=O)N1CCc2c(sc(NC(=O)C3CCN(S(=O)(=O)c4cccs4)CC3)c2C(N)=O)C1 |  | inactive: -15.6%
37 | CCOC(=O)c1c(C)oc2ncnc(N3CCN(c4ccccc4F)CC3)c12 | inconclusive: 1 µM [inhibitor, full curve, poor fit] | 
38 | O=C(Nc1ccc2c(c1)OCO2)c1c(F)cccc1F |  | inactive: -12.7%
39 | Cc1ccc(NC(=O)Nc2ccnc(-c3cccnc3)n2)cc1 | inconclusive: 14.6 µM [inhibitor, partial curve, poor fit] | 
40 | CCSc1nnc(N(CCC(=O)O)CCC(=O)O)s1 | inconclusive: 18.3 µM [inhibitor, single point] | 
41 | Cn1cc([N+](=O)[O-])c(C(=O)Nc2cc(Oc3ccccc3)cc([N+](=O)[O-])c2)n1 | inconclusive: 14.6 µM [inhibitor, partial curve, poor fit] | 
42 | CN(CC(=O)Nc1nc2ccccc2s1)S(=O)(=O)c1ccccc1 |  | inactive: 14.9%
43 | COc1ccc(C(=O)NCCNC(=O)c2ccccn2)cc1 |  | inactive: 4.24% [at 46.1 µM]
44 | CC(=O)c1c(N2CCOCC2)nc2ccc(Cl)cc2c1-c1ccccc1 | inconclusive: 25.1 µM [inhibitor, single point] | 
45 | Cc1cc(Br)ccc1NC(=O)CN1C(=O)CCC1=O |  | inactive: -1.79%
46 | CC(=O)N1CCOc2cc(S(=O)(=O)NCc3ccc(C)cc3)c(Cl)cc21 |  | inactive: -23.5% [at 46.1 µM]

In a second layout: 3 of the compounds above.
Row,SMILES,Potency,"activity change, negative = inhibition"
42,CN(CC(=O)Nc1nc2ccccc2s1)S(=O)(=O)c1ccccc1,,inactive: 14.9%
44,CC(=O)c1c(N2CCOCC2)nc2ccc(Cl)cc2c1-c1ccccc1,"inconclusive: 25.1 µM [inhibitor, single point]",
46,CC(=O)N1CCOc2cc(S(=O)(=O)NCc3ccc(C)cc3)c(Cl)cc21,,inactive: -23.5% [at 46.1 µM]

Next compounds

Row | SMILES | Potency | activity change, negative = inhibition
47 | CCOC(=O)C1(CC2CC2)CCN(C(=O)c2cc(OC)nc3ccccc23)CC1 | inconclusive: 12.6 µM [inhibitor, single point] | 
48 | COc1ccc(C(=O)OCC(=O)c2ccc(S(=O)(=O)N3CCCCC3)cc2)c(OC)c1 |  | inactive: -11.3%
49 | COc1ccc(S(=O)(=O)N(CC(=O)NCCC(C)C)c2ccccc2)cc1OC | inconclusive: 35.5 µM [inhibitor, single point] | 
50 | O=c1c2ccccc2nc(CSc2ncnc3nc[nH]c23)n1-c1ccc(Cl)c(Cl)c1 | inconclusive: 0.891 µM [inhibitor, full curve, poor fit] | 
51 | CCCCCC(=O)NC(=S)Nc1ccc2oc(=O)ccc2c1 | inconclusive: 1 µM [inhibitor, single point] | 
52 | COc1ccc(C2(Nc3cccc(C(=O)O)c3C)C(=O)c3ccccc3C2=O)cc1 | inconclusive: 5.62 µM [activator, single point] | 
53 | O=C(CC1S/C(=N/N=C/C=C/c2ccccc2)NC1=O)Nc1ccc(Cl)c(Cl)c1 (configuration not stated) | inconclusive: 4.61 µM [inhibitor, partial curve, poor fit] | 
54 | COc1ccc(CCNC(=O)c2ccc(OCc3c(C)noc3C)c(OC)c2)cc1 | inconclusive: 3.16 µM [inhibitor, partial curve, poor fit] | 
55 | Cc1ccc(-c2noc(=O)n2CC(=O)Nc2ccc(S(=O)(=O)NC3CC3)cc2)cc1 | inconclusive: 8.2 µM [inhibitor, partial curve] | 
56 | CCn1c(C)nc2cc(C(=O)N/N=C(\C)c3ccc(OC)cc3O)ccc21 | inconclusive: 35.5 µM [inhibitor, single point] | 
57 | O=C(CS(=O)(=O)c1cccc2nsnc12)Nc1ccccc1 |  | inactive: 8.58% [at 46.1 µM]
58 | O=C(O)CC1SC(=Nc2cccc(O)c2)NC1=O (configuration not stated) |  | inactive: 26.7%
59 | Cc1ccc(S(=O)(=O)NC(=O)Nc2cc(C)ccc2F)cc1 | inconclusive: 0.259 µM [activator, full curve, poor fit] | 
60 | CCOc1ccccc1NC(=O)CSc1nc(=O)[nH]c2c1CCCC2 | inconclusive: 0.447 µM [inhibitor, full curve, poor fit] | 
61 | Cc1ccc(/C=C2/CCc3c([nH]c4ccccc34)C2=O)cc1 | inconclusive: 0.316 µM [activator, partial curve, poor fit] | 
62 | O=C(Nc1ccc(Cl)c(Cl)c1)c1ccco1 |  | inactive: -28.9%
63 | O=C(O)c1ccc(Cl)c(NCc2ccncc2)c1 | inconclusive: 35.5 µM [activator, single point] | 
64 | COc1ccc(-c2nc(N)n(S(=O)(=O)c3ccc(C)cc3)n2)cc1 | inconclusive: 10 µM [inhibitor, partial curve] | 
65 | O=C(NC1=NCCS1)c1cccs1 |  | inactive: 2.21%
66 | Nc1cccc(-c2nc3ccccc3[nH]2)c1 | inconclusive: 0.92 µM [activator, full curve] | 
67 | Cc1sc2nc(SCC(=O)N(C)Cc3ccccc3)n(-c3ccccc3)c(=O)c2c1C | inconclusive: 35.5 µM [inhibitor, single point] | 

From entry 48 to 49, as listed above:
Row | SMILES | Potency | activity change, negative = inhibition
48 | COc1ccc(C(=O)OCC(=O)c2ccc(S(=O)(=O)N3CCCCC3)cc2)c(OC)c1 |  | inactive: -11.3%
49 | COc1ccc(S(=O)(=O)N(CC(=O)NCCC(C)C)c2ccccc2)cc1OC | inconclusive: 35.5 µM [inhibitor, single point] | 

— PubChem BioAssay AID540256 (National Center for Advancing Translational Sciences (NCATS), 2011)
